Measured values reported in the supplement of paper PMC4604168 (melanoma cell lines).
This is one part of the list. Repeats are few or missing, and single values can be far off.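 The apoptosis fraction was the count of cleaved-PARP antibody-stained nuclei relative to all DNA-stained nuclei, imaged in 1,536-well plates. Screening doses were set so most cells survived, and baseline and induced cleaved-PARP levels vary greatly across cell lines.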

test system: A101D; experiment: cleaved PARP positive nuclei fraction relative to DMSO control; melanoma cells; higher = more apoptosis; conditions: library dose: low library concentration; 72 h

SMILES	cleaved PARP positive nuclei fraction [%]
OCCn1cc(-c2cnc3nnn(Cc4ccc5ncccc5c4)c3n2)cn1 + Oc1cc(-c2nc(-c3ccccc3)[nH]c2-c2ccncc2)ccc1Cl [L779450] (first compound 1 µM, partner dose 0.2 µM)	114
CO[C@@H]1[C@H](N(C)C(=O)c2ccccc2)C[C@H]2O[C@]1(C)n1c3ccccc3c3c4c(c5c6ccccc6n2c5c31)C(=O)NC4 [Midostaurin] + O=C(Nc1ccccc1)c1cc([N+](=O)[O-])ccc1Cl [GW9662] (first compound 0.08 µM, partner dose 2 µM)	187
CC1(C)NC(=O)N(c2ccc([N+](=O)[O-])c(C(F)(F)F)c2)C1=O [nilutamide] + COC(=O)c1sccc1S(=O)(=O)Nc1ccc(Nc2ccccc2)cc1OC [GSK0660] (first compound 1 µM, partner dose 1 µM)	142
Cc1nc(Nc2ncc(C(=O)Nc3c(C)cccc3Cl)s2)cc(N2CCN(CCO)CC2)n1 [dasatanib] + Cc1cc([N+](=O)[O-])ccc1NS(=O)(=O)c1cc(Cl)ccc1Cl [FH535] (first compound 0.004 µM, partner dose 1 µM)	149
C[C@@H]1CCN(C(=O)CC#N)C[C@@H]1N(C)c1ncnc2[nH]ccc12 + O=C(Nc1ccccc1)c1cc([N+](=O)[O-])ccc1Cl [GW9662] (first compound 1 µM, partner dose 2 µM)	47.9
C=CCn1c(=O)c2cnc(Nc3ccc(N4CCN(C)CC4)cc3)nc2n1-c1cccc(C(C)(C)O)n1 + O=c1cc(-c2cccc3c2Sc2ccccc2S3)oc(N2CCOCC2)c1 [KU55933] (first compound 0.02 µM, partner dose 1 µM)	281
Cc1ccc(NC(=O)c2cccc(N(C)C)c2)cc1NC(=O)c1ccc(O)cc1 + N#Cc1c(O)c2c(-c3ccc(-c4ccccc4O)cc3)csc2[nH]c1=O [A769662] (first compound 2 µM, partner dose 2 µM)	97.4
Cc1cc(N2CCOCC2)cc2[nH]c(-c3c(NC[C@@H](O)c4cccc(Cl)c4)cc[nH]c3=O)nc12 + O=C(O)C(=O)Nc1sc2c(c1C(=O)O)CCNC2 [TCS401] (first compound 0.2 µM, partner dose 1.66667 µM)	304
C=CCn1c(=O)c2cnc(Nc3ccc(N4CCN(C)CC4)cc3)nc2n1-c1cccc(C(C)(C)O)n1 + CCN(CC)CCCCNc1ncc2cc(-c3cc(OC)cc(OC)c3)c(NC(=O)NC(C)(C)C)nc2n1 [PD173074] (first compound 0.02 µM, partner dose 0.1 µM)	91.4
Cc1cc(N2CCOCC2)cc2[nH]c(-c3c(NC[C@@H](O)c4cccc(Cl)c4)cc[nH]c3=O)nc12 + O=c1cc(-c2cccc3c2Sc2ccccc2S3)oc(N2CCOCC2)c1 [KU55933] (first compound 0.2 µM, partner dose 1 µM)	118
C#Cc1cccc(Nc2ncnc3cc(OCCOC)c(OCCOC)cc23)c1 [erlotinib] + O=c1cc(-c2cccc3c2Sc2ccccc2S3)oc(N2CCOCC2)c1 [KU55933] (first compound 0.8 µM, partner dose 1 µM)	131
Cn1c(Nc2ccc(C(F)(F)F)cc2)nc2cc(Oc3ccnc(-c4ncc(C(F)(F)F)[nH]4)c3)ccc21 + O=C1NC(=O)/C(=C/c2ccc(-c3ccc(F)cc3O)o2)S1 [AS252424] (first compound 0.08 µM, partner dose 1 µM)	610
NC(=O)Nc1cc(-c2cccc(F)c2)sc1C(=O)N[C@H]1CCCNC1 + CCCCCCCCCCCC1=C(O)C(=O)C=C(O)C1=O [Embelin] (first compound 0.02 µM, partner dose 1.2 µM)	41.2
C=CCn1c(=O)c2cnc(Nc3ccc(N4CCN(C)CC4)cc3)nc2n1-c1cccc(C(C)(C)O)n1 + COc1cc2ncnc(Nc3ccc(Oc4ccccc4)cc3)c2cc1OC [SrcI1] (first compound 0.02 µM, partner dose 2 µM)	296
Cn1c(Nc2ccc(C(F)(F)F)cc2)nc2cc(Oc3ccnc(-c4ncc(C(F)(F)F)[nH]4)c3)ccc21 + N#Cc1c(O)c2c(-c3ccc(-c4ccccc4O)cc3)csc2[nH]c1=O [A769662] (first compound 0.08 µM, partner dose 2 µM)	265

Single values from the list.
cleaved PARP positive nuclei fraction [%], Cc1nc(Nc2ncc(C(=O)Nc3c(C)cccc3Cl)s2)cc(N2CCN(CCO)CC2)n1 [dasatanib] + Cc1cc([N+](=O)[O-])ccc1NS(=O)(=O)c1cc(Cl)ccc1Cl [FH535] (first compound 0.004 µM, partner dose 1 µM) is entered as 149
cleaved PARP positive nuclei fraction [%], C[C@@H]1CCN(C(=O)CC#N)C[C@@H]1N(C)c1ncnc2[nH]ccc12 + O=C(Nc1ccccc1)c1cc([N+](=O)[O-])ccc1Cl [GW9662] (first compound 1 µM, partner dose 2 µM) is entered as 47.9
